In article doi:10.64898/2025.12.26.696631 one finds binding data, which are given here for one substance.

These are yes or no findings as the source states them, for the method shown. Binding seen in cells or lysates may run through a third protein. These calls come from enrichment with a bait or labelling near it, and not all partners need be listed. Tags and fused reporters may be left off the sequences shown.

This assay addresses T1, HA-tagged ZDHHC11 (UniProt Q9H8X9).
T1 sequence: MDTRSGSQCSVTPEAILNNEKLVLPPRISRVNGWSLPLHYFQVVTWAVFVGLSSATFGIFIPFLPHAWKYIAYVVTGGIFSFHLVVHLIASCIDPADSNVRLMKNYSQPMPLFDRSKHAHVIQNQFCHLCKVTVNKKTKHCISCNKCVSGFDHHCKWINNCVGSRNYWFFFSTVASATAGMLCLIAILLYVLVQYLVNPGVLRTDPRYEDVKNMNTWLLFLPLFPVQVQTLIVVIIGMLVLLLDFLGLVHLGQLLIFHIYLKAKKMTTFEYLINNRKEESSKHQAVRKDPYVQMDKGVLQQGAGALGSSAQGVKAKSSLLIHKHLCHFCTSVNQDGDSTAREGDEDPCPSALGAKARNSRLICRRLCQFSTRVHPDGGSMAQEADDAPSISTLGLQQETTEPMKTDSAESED
Kind of assay: affinity purification with mass spectrometry.

Consider “programmed cell death ligand 1 (PD-L1) (from UniProt Q9NZQ7 19-290)”, for which the binding entry was “binds”.
